No constants are given. Whether binding was seen depends on the method and setting. Binding seen in cells or lysates may run through a third protein. Some entries that bind do so weakly or less than the wild type. Where a sequence is shown, tags or fusion partners need not be part of it.
Key:
Assay in all cases: co-IP
[1] = molecular target: 6×Myc-N(270–419) (SARS-CoV-2) (UniProt P0DTC9)
[2] = molecular target: 6×Myc-N(80–419) (SARS-CoV-2) (UniProt P0DTC9)
[3] = molecular target: 6×Myc-N(200–419) (SARS-CoV-2) (UniProt P0DTC9)

Measured: binding

B1: HA-Herc5 (enzyme, UniProt Q9UII4 1-1024)
chain: MERRSRRKSRRNGRSTAGKAAATQPAKSPGAQLWLFPSAAGLHRALLRRVEVTRQLCCSPGRLAVLERGGAGVQVHQLLAGSGGARTPKCIKLGKNMKIHSVDQGAEHMLILSSDGKPFEYDNYSMKHLRFESILQEKKIIQITCGDYHSLALSKGGELFAWGQNLHGQLGVGRKFPSTTTPQIVEHLAGVPLAQISAGEAHSMALSMSGNIYSWGKNECGQLGLGHTESKDDPSLIEGLDNQKVEFVACGGSHSALLTQDGLLFTFGAGKHGQLGHNSTQNELRPCLVAELVGYRVTQIACGRWHTLAYVSDLGKVFSFGSGKDGQLGNGGTRDQLMPLPVKVSSSEELKLESHTSEKELIMIAGGNQSILLWIKKENSYVNLKRTIPTLNEGTVKRWIADVETKRWQSTKREIQEIFSSPACLTGSFLRKRRTTEMMPVYLDLNKARNIFKELTQKDWITNMITTCLKDNLLKRLPFHSPPQEALEIFFLLPECPMMHISNNWESLVVPFAKVVCKMSDQSSLVLEEYWATLQESTFSKLVQMFKTAVICQLDYWDESAEENGNVQALLEMLKKLHRVNQVKCQLPESIFQVDELLHRLNFFVEVCRRYLWKMTVDASENVQCCVIFSHFPFIFNNLSKIKLLHTDTLLKIESKKHKAYLRSAAIEEERESEFALRPTFDLTVRRNHLIEDVLNQLSQFENEDLRKELWVSFSGEIGYDLGGVKKEFFYCLFAEMIQPEYGMFMYPEGASCMWFPVKPKFEKKRYFFFGVLCGLSLFNCNVANLPFPLALFKKLLDQMPSLEDLKELSPDLGKNLQTLLDDEGDNFEEVFYIHFNVHWDRNDTNLIPNGSSITVNQTNKRDYVSKYINYIFNDSVKAVYEEFRRGFYKMCDEDIIKLFHPEELKDVIVGNTDYDWKTFEKNARYEPGYNSSHPTIVMFWKAFHKLTLEEKKKFLVFLTGTDRLQMKDLNNMKITFCCPESWNERDPIRALTCFSVLFLPKYSTMETVEEALQEAINNNRGFG
binds: [1] | [2] | [3]

Source: paper PMC11540652
